Results published in the supplement of paper PMC6078165.

Tested on: BT20
Test: relative JC-1 red fluorescence (viability) vs pre-drug, coculture with fibroblast (fraction); higher = more viable cancer cells
Description: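 JC-1 labelled TNBC cells cocultured 1:1 (1,500 cells each) with CellTrace Violet stained primary or stromal fibroblasts in 384-well plates in FluoroBrite medium, treated with one of 42 anticancer drugs at 0.1, 1, 10 or 100 uM. JC-1 red fluorescence (mitochondrial integrity in cancer cells only) was read by plate reader every 8 h for 72 h. Values are normalised to each well's pre-drug value. The stock of one drug was tenfold lower, so its dose labels may be too high.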

CC(=O)O[C@H]1C(=O)[C@@]2(C)[C@H]([C@H](OC(=O)c3ccccc3)[C@]3(O)C[C@H](OC(=O)[C@H](O)[C@@H](NC(=O)c4ccccc4)c4ccccc4)C(C)=C1C3(C)C)[C@]1(OC(C)=O)CO[C@@H]1C[C@@H]2O [Paclitaxel]
relative JC-1 red fluorescence
Conditions	8 h	16 h	24 h	32 h	40 h	48 h	56 h	64 h	72 h
0.1 µM, coculture fibroblast: C12385	0.94	0.842	0.809	0.747	0.687	0.668	0.64	0.638	0.65
0.1 µM, coculture fibroblast: H6013	0.898	0.92	0.91	0.887	0.848	0.832	0.818	0.808	0.804
0.1 µM, coculture fibroblast: H6019	0.861	0.768	0.7382	0.68	0.64	0.613	0.567	0.535	0.518
0.1 µM, coculture fibroblast: H6076	0.943	0.875	0.7883	0.7558	0.722	0.708	0.717	0.727	0.724
0.1 µM, coculture fibroblast: H6231	0.848	0.938	0.754	0.658	0.584	0.517	0.465	0.445	0.422
0.1 µM, coculture fibroblast: HADF	0.843	0.904	0.81	0.754	0.682	0.627	0.607	0.574	0.545
0.1 µM, coculture fibroblast: HCFa	0.93	0.797	0.734	0.668	0.596	0.552	0.503	0.474	0.435
0.1 µM, coculture fibroblast: HCPF	0.807	0.93	0.802	0.745	0.697	0.656	0.601	0.613	0.58
0.1 µM, coculture fibroblast: HHSteC	0.9582	0.8503	0.832	0.744	0.688	0.668	0.634	0.602	0.571
0.1 µM, coculture fibroblast: HMF	0.971	0.861	0.755	0.685	0.617	0.557	0.531	0.515	0.5007
0.1 µM, coculture fibroblast: HPFa	0.976	0.941	0.966	0.884	0.874	0.835	0.829	0.82	0.788
0.1 µM, coculture fibroblast: HUF	0.914	0.796	0.7211	0.6258	0.566	0.51	0.461	0.424	0.403
0.1 µM, coculture fibroblast: Hs5	0.959	0.906	0.846	0.805	0.766	0.728	0.714	0.687	0.675
0.1 µM, coculture fibroblast: Hs27A	0.706	0.86	0.885	0.8426	0.821	0.819	0.824	0.808	0.7884
0.1 µM, coculture fibroblast: Hs343T	0.962	0.825	0.736	0.681	0.607	0.5372	0.489	0.478	0.452
0.1 µM, coculture fibroblast: WS1	0.8916	0.7836	0.735	0.662	0.584	0.552	0.5004	0.479	0.4778
1 µM, coculture fibroblast: C12385	0.898	0.819	0.771	0.72	0.667	0.652	0.612	0.605	0.612
1 µM, coculture fibroblast: H6013	0.892	0.909	0.834	0.751	0.809	0.822	0.733	0.71	0.726
1 µM, coculture fibroblast: H6019	0.877	0.7948	0.814	0.752	0.713	0.691	0.664	0.644	0.626
1 µM, coculture fibroblast: H6076	0.97	0.888	0.818	0.7839	0.756	0.7117	0.697	0.699	0.693
1 µM, coculture fibroblast: H6231	0.884	0.896	0.765	0.684	0.602	0.553	0.51	0.498	0.475
1 µM, coculture fibroblast: HADF	0.9947	0.857	0.813	0.755	0.723	0.678	0.651	0.654	0.62
1 µM, coculture fibroblast: HCFa	0.934	0.84	0.805	0.7324	0.669	0.63	0.59	0.562	0.518
1 µM, coculture fibroblast: HCPF	0.948	0.819	0.754	0.7007	0.643	0.608	0.583	0.56	0.529
1 µM, coculture fibroblast: HHSteC	0.9147	0.8735	0.9136	0.819	0.787	0.768	0.76	0.745	0.715
1 µM, coculture fibroblast: HMF	0.966	0.836	0.76	0.688	0.625	0.555	0.514	0.484	0.47
1 µM, coculture fibroblast: HPFa	0.963	0.879	0.886	0.789	0.755	0.698	0.68	0.67	0.639
1 µM, coculture fibroblast: HUF	0.91	0.802	0.75	0.6575	0.5978	0.524	0.48	0.44	0.424
1 µM, coculture fibroblast: Hs5	0.946	0.9	0.845	0.792	0.761	0.729	0.69	0.684	0.666
1 µM, coculture fibroblast: Hs27A	0.823	0.796	0.95	0.953	0.928	0.914	0.955	0.929	0.897
1 µM, coculture fibroblast: Hs343T	0.92	0.857	0.749	0.658	0.586	0.513	0.469	0.443	0.421
1 µM, coculture fibroblast: WS1	0.883	0.767	0.745	0.671	0.624	0.594	0.576	0.572	0.58
10 µM, coculture fibroblast: C12385	0.932	0.878	0.845	0.784	0.746	0.726	0.683	0.646	0.622
10 µM, coculture fibroblast: H6013	0.992	0.9219	0.8892	0.8413	0.797	0.78	0.795	0.779	0.759
10 µM, coculture fibroblast: H6019	0.919	0.854	0.866	0.828	0.796	0.7785	0.761	0.741	0.731
10 µM, coculture fibroblast: H6076	0.889	0.9186	0.8511	0.818	0.775	0.7453	0.741	0.748	0.748
10 µM, coculture fibroblast: H6231	0.764	0.945	0.845	0.759	0.702	0.632	0.603	0.564	0.532
10 µM, coculture fibroblast: HADF	0.935	0.918	0.837	0.792	0.744	0.689	0.67	0.645	0.621
10 µM, coculture fibroblast: HCFa	0.903	0.879	0.817	0.749	0.675	0.622	0.578	0.551	0.525
10 µM, coculture fibroblast: HCPF	0.828	0.941	0.8266	0.761	0.693	0.623	0.578	0.555	0.51
10 µM, coculture fibroblast: HHSteC	0.868	0.8985	0.869	0.793	0.71	0.658	0.59	0.546	0.5
10 µM, coculture fibroblast: HMF	0.847	0.939	0.7968	0.716	0.61	0.526	0.454	0.41	0.371
10 µM, coculture fibroblast: HPFa	0.842	0.929	0.928	0.842	0.812	0.752	0.728	0.695	0.664
10 µM, coculture fibroblast: HUF	0.966	0.896	0.87	0.798	0.735	0.673	0.637	0.605	0.586
10 µM, coculture fibroblast: Hs5	0.8839	0.874	0.863	0.802	0.7317	0.675	0.615	0.578	0.563
10 µM, coculture fibroblast: Hs27A	0.922	0.738	0.962	0.9576	0.921	0.906	0.896	0.859	0.831
10 µM, coculture fibroblast: Hs343T	0.991	0.882	0.753	0.671	0.574	0.498	0.398	0.354	0.296
10 µM, coculture fibroblast: WS1	0.9185	0.8346	0.7753	0.699	0.633	0.594	0.546	0.506	0.487

Values are relative to the signal before dosing, not to a vehicle control; the signal also falls without drug.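 Fibroblast labels denote human fibroblasts, mainly primary ones from uterus (C12385, HUF), lung (H6013), bone (Hs27A), adrenal (HADF) and skin (WS1), plus mammary HMF and breast cancer-associated Hs343T. Cancer cells are basal-like or mesenchymal-like triple-negative breast cancer lines. A hit is a response shift exceeding 3x replicate standard deviation. The tissue of the other fibroblasts is not given here.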
